Laboratory results taken from paper PMC6547884, “Molecular Basis for poly(A) RNP Architecture and Recognition by the Pan2-Pan3 Deadenylase” (Cell, 2019).
These are yes or no findings as the source states them, for the method shown. Some results given as binding are weak or reduced against the parent protein; the word gives no strength. Sequences can lack the tags named with a protein.

Target: T1, Pan3 (S. cerevisiae, C-terminal deca-histidine tag) (S. cerevisiae) (UniProt P36102)
T1 sequence: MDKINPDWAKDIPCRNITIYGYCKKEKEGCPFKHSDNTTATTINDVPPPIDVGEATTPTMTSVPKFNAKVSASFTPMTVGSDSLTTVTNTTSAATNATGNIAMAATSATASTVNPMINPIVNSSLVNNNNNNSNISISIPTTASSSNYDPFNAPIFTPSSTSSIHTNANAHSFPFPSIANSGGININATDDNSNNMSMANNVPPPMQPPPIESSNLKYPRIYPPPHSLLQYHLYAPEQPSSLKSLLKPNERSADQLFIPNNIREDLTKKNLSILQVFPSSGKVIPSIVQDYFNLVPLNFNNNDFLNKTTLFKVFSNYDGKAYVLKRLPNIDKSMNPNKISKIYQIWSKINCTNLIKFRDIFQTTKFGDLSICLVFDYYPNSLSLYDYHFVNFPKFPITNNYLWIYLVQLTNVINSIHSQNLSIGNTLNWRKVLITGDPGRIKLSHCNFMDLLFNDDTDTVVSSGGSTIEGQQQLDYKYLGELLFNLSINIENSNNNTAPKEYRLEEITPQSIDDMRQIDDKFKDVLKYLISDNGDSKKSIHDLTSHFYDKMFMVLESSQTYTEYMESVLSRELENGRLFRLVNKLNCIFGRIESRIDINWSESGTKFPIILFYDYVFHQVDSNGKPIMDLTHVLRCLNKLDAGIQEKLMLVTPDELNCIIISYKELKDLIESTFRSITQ
Assay: co-purification (IMAC, ion exchange, gel filtration); Pan2 and Pan3 variants co-expressed in insect cells; purified via the C-terminal deca-histidine tag on Pan3, then Mono Q and Superdex200 (20 mM HEPES pH 7.5, 200 mM NaCl)

- binding: binds
B1: Pan2ΔWD40 (domain or fragment, UniProt P53010 340-1115)
chain: MLAYPDYFNDITSDGPISVDDETYPLSSVGMPYYLDKLLSAWPPVVFKSEGTIPQLTGKSPLPSSGKLKSNLAVISSQNEKLSTQEFPLLRYDRTKYGMRNAIPDYVCLRDIRKQITSGLETSDIQTYTSINKYEVPPAYSRLPLTSGRFGTDNFDFTPFNNTEYSGLDPDVDNHYTNAIIQLYRFIPEMFNFVVGCLKDENFETTLLTDLGYLFDMMERSHGKICSSSNFQASLKSLTDKRQLENGEPQEHLEEYLESLCIRESIEDFNSSESIKRNMPQKFNRFLLSQLIKEEAQTVNHNITLNQCFGLETEIRTECSCDHYDTTVKLLPSLSISGINKTVIKQLNKKSNGQNILPYIEYAMKNVTQKNSICPTCGKTETITQECTVKNLPSVLSLELSLLDTEFSNIRSSKNWLTSEFYGSIIKNKAVLRSTASELKGTSHIFKYELNGYVAKITDNNNETRLVTYVKKYNPKENCFKWLMFNDYLVVEITEEEALKMTYPWKTPEIIIYCDAEELRKPFFSVDTYSINYDILFRDYFANGIRDTARREYKLLTHDEAPKSGTLVAIDAEFVSLQSELCEIDHQGIRSIIRPKRTALARISIIRGEEGELYGVPFVDDYVVNTNHIEDYLTRYSGILPGDLDPEKSTKRLVRRNVVYRKVWLLMQLGCVFVGHGLNNDFKHININVPRNQIRDTAIYFLQGKRYLSLRYLAYVLLGMNIQEGNHDSIEDAHTALILYKKYLHLKEKAIFEKVLNSVYEEGRAHNFKVPETSKG
